The assay deals with T1, endogenous FLAG-Strep-Med19 fusion (rat (endogenous in INS-1)) (UniProt D3ZAP1).
T1 sequence: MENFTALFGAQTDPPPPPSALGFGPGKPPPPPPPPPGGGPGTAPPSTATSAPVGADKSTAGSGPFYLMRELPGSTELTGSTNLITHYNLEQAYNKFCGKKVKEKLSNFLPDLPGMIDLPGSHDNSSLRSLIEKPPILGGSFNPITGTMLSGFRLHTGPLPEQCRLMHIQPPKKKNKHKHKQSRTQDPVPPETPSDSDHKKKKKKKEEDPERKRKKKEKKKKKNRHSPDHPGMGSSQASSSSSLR
The experiment in a line: co-IP; FLAG immunoprecipitation of endogenous FLAG-Med19 from INS-1 extracts (Med14 WT and Med14 S983A Crispr knock-in lines; control, FSK, H-89, Ex-4, Semaglutide or Tirzepatide treatment), western blot of the immunoprecipitates. For orientation: Immunoblotting shows a protein as a band on a membrane.

Here are results for one molecule from publication PMC12974444.

No constants are given. Whether binding was seen depends on the method and setting. In cells and extracts the contact can be indirect. Some results given as binding are weak or reduced against the parent protein; the word gives no strength. Tags and fused reporters may be left off the sequences shown.

B1: Cdk8 (protein, UniProt A0A8I5ZVW8 1-507)
chain: MDYDFKVKLSSERERVEDLFEYEGCKVGRGTYGHVYKAKRKDGKDDKDYALKQIEGTGISMSACREIALLRELKHPNVISLQKVFLSHADRKVWLLFDYAEHDLWHIIKFHRASKANKKPVQLPRGMVKSLLYQILDGIHYLHANWVLHRDLKPANILVMGEGPERGRVKIADMGFARLFNSPLKPLADLDPVVVTFWYRAPELLLGARHYTKAIDIWAIGCIFAELLTSEPIFHCRQEDIKTSNPYHHDQLDRIFNVMGFPADKDWEDIKKMPEHSTLMKDFRRNTYTNCSLIKYMEKHKVKPDSKAFHLLQKLLTMDPIKRITSEQAMQDPYFLEDPLPTSDVFAGCQIPYPKREFLTEEEPDEKGDKKNQQQQQGNNHTNGTGHPGNQDSGHAQGPPLKKVRVVPPTTTSAFQSTCCLSQPWTKHITAPEQHGILSYLPAASTVLTSDTSVLSCAGVCPCTVAHAAGLAAALCGNLVWAMRMYCTTTSSQCPVAEFHSCHRSGR
For B1, the binding result was “binds”.
